In patent publication US12709596B2, “Molecules” (ENA Respiratory Pty Ltd, priority 2019, dated 2026):
At least one read-out could not be matched to a standard name with certainty.

Experiment: Stability II: 9 day stability under accelerated conditions in EDTA/saline pH 5 by HPLC
Assay type: physicochemical
Details: 40° C./75% RH, 9 days, 1 mg/mL in 0.1% w/v EDTA/0.9% saline w/v buffered to pH 5; percentage of time zero peak area
Procedure: Stability was measured using reversed phase HPLC with a UV detector analytical wavelength of 205 nm. Peak areas of each compound at the 9 day time point were compared with areas at time zero. Compound stability at day 9 was calculated as a percentage of the time zero peak area data. Compound stability was further assessed by comparison with a reference sample of the same compound. […] Thawed samples were sonicated and measured by HPLC.

Row | area % recovery (Day 9) [%] | SMILES
1 | 98.4 | CCCCCCCCCCCCCCC(C)C(=O)OCC[C@H](CSC[C@H](N)C(=O)N[C@@H](CO)C(=O)NCCOCCOCCOCCOCCOCCOCCOCCOCCOCCOCCOCCOCCOCCOCCOCCOCCOCCOCCOCCOCCOCCOCCOCCOCCOCCOCCOCCOCCC(=O)NCC(N)=O)OC(=O)C(C)CCCCCCCCCCCCCC (some centres unmarked) [Compound 36]
2 | 94.4 | CCCCCCCCCCCCCCCC(=O)OC[C@H](CSC[C@H](N)C(=O)N[C@@H](CO)C(=O)NCCOCCOCCOCCOCCOCCOCCOCCOCCOCCOCCOCCOCCOCCOCCOCCOCCOCCOCCOCCOCCOCCOCCOCCOCCOCCOCCOCCOCCC(=O)NCC(N)=O)OC(=O)CCCCCCCCCCCCCCC [Compound (8) of WO2019/119067, reference compound]
